Data from US20170051112A1, “RESIN COMPOSITION SUITABLE FOR PRINTING AND PRINTING METHOD UTILIZING THE SAME” (MONTANUNIVERSITÄT LEOBEN, priority 2014, published 2017).

Experiment: Reaction kinetics / residual monomer content by real-time FTIR spectroscopy
Conditions: content of alkyne or alkene after a reaction time of 2 min of irradiation; 5 wt.-% photoinitiator; alkynes with TMPMP
`CCC#COCCOC(COCC)OC#CCC` (centres unmarked) [1,4-triethyleneglycol dibut-1-ynyl ether] gave a Residual monomer content of less than 1%.
With `C=C(C)C(=O)OCCCCOC(=O)C(=C)C` [1,4-butanediol dimethacrylate, reference compound] the Residual monomer content was 26%.
Work on `C=CC(=O)OCCCCOC(=O)C=C` [1,4-butanediol diacrylate, reference compound] yielded a Residual monomer content of 21%.
In the case of `CCC#COCCCCOC#CCC` [1,4-butanediol dibut-1-ynyl ether], the Residual monomer content is reported as less than 1%.
In the case of `C#CCOCCCCOCC#C` [1,4-butanediol dipropargyl ether], the Residual monomer content is reported as 2%.
